Patent publication US20030082682A1
No constants are given. Whether binding was seen depends on the method and setting. Some entries that bind do so weakly or less than the wild type.

Protein sequences, listed by entry. Tags and fused reporters are not part of them. Residues count along the entry.
UniProt P37231, residues 204-505: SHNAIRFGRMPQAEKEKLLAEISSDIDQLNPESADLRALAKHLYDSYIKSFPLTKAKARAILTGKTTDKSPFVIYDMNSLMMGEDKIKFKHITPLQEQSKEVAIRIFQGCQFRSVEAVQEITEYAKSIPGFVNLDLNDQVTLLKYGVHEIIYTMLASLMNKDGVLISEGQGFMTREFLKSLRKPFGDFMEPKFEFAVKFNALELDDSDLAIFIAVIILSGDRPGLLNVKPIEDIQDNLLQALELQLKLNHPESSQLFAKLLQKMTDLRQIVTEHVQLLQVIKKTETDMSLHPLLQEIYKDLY

Target: PPARg (UniProt P37231)
Test: two-hybrid, directed analysis against a panel of nuclear hormone receptors

B1: RXR interacting protein, RB204 (protein)
chain: MGATIECWPAQTKYPVPVFSTFVLTGAAGDKVYGAALQFYEAFPRARLSERQARALGLLSAVERGRALGGRAVRSRRAIAVLSRWPAFPAFRAFLTFLYRYSVSGPHRLPLEAHISHFIHNVPFPSPQRPRILVQMSPYDNLLLCQPVSSPLPLSGASFLQLLQSLGPELAITLLLAVLTEHKLLVHSLRPDLLTSVCEALVSMIFPLHWQCPYIPLCPLVLADVLSAPVPFIVGIHSSYFDLHDPPADVICVDLDTNTLFQTEEKKLLSPRTLPRRPYKVLLATLTNLYQQLDQTYTGPEEEASLEFLLTDYEAVCGRRARLEREVQGAFLRFMACLLKGYRVFLRPLTQAPSEGARDVDNLFFLQGFLKSRERSSHKLYSQLLHTQMFSQFIEECSFGSARHAALEFFDSCVEKVHPEQEKPEPTPLVELEELSGSELTVFITPPEEPALPEGSESTPQYCYDGFPELRAELFESLQEQPGALPVPGPSRSAPSSPAPRRTKQEMKVAQRMAQKSAAVPELWARCLLGHCYGLWFLCLPAYVRSAPSRVQALHTAYHVLRQMESGKVVLPDEVCYRVLMQLCSHYGQPVLSVRVMLEMRQAGIVPNTITYGYYNKAVLESKWPSGTPGGRLRWAKLRNVVLGAAQFRQPLRERQQQQQQQQQQQQQQQQEQVSAHQEAGSSQAEPYLERPSPTRPLQRQTTWAGRSLRDPASPPGRLVKSGSLGSARGAQPTVEAGVAHMIEALGVLEPRGSPVPWHDGSLSDLSLTGEEPLPGGSPGGSGSALSAQSTEALEGLSGRGPKAGGRQDEAGTPRRGLGARLQQLLTPSRHSPASRIPPPELPPDLPPPARRSPMDSLLHPRERPGSTASESSASLGSEWDLSESSLSNLSLRRSSERLSDTPGSFQSPSLEILLSSCSLCRACDSLVYDEEIMAGWAPDDSNLNTTCPFCACPFVPLLSVQTLDSRPSVPSPKSAGASGSKDAPVPGGPGPVLSDRRLCLALDEPQLCNGHMGGASRRVESGAWAYLSPLVLRKELESLVENEGSEVLALPELPSAHPIIFWNLLWYFQRLRLPSILPGLVLASCDGPSHSQAPSPWLTPDPASVQVRLLWDVLTPDPNSCPPLYVLWRVHSQIPQRVVWPGPVPASLSLALLESVLRHVGLNEVHKAVGLLLETLGPPPTGLHLQRGIYREILFLTMAALGKDHVDIVAFDKKYKSAFNKLASSMGKEELRHRRAQMPTPKAIDCRKCFGAPPEC
Q: With B1 as the binder, how does the binding read?
A: Its binding is “binds”.
